No constants are given. Whether binding was seen depends on the method and setting. Some binding calls cover weakened binding; strength is not graded here.
Tests used:
Assay in all cases: co-purification of co-expressed subunits (StrepTactin affinity, ion exchange, SDS gel); all fourteen genes co-expressed in High Five cells; lysis and wash in 50 mM Tris pH 8.0, 500 mM NaCl; captured by the twin Strep-tag of Swr1 or its variant on StrepTactin HP, then HiTrap Q HP; bands on the SDS gel identified by mass spectrometry
[1] = target: Swr1 (residues 1–1514 with an N-terminal 8-histidine and C-terminal twin Strep-tag) (yeast) (UniProt Q05471)
[2] = target: Swr1 C-terminal truncation at residue 1410 (yeast) (UniProt Q05471)
[3] = target: Swr1 C-terminal truncation at residue 1460 (yeast) (UniProt Q05471)
[4] = target: Swr1 C-terminal truncation to 1359 (yeast) (UniProt Q05471)
[5] = target: Swr1 C-terminal truncation, truncated at residue 1497 (yeast) (UniProt Q05471)
[6] = target: Swr1 N-terminal truncation to residue 299 (yeast) (UniProt Q05471)
[7] = target: Swr1 N-terminal truncation to residue 369 (yeast) (UniProt Q05471)
[8] = target: Swr1 N-terminal truncation to residue 409 (yeast) (UniProt Q05471)
[9] = target: Swr1 N-terminal truncation, 339 residues deleted (yeast) (UniProt Q05471)
[10] = target: Swr1 N-terminal truncation, first 210 residues removed (yeast) (UniProt Q05471)
[11] = target: Swr1 N-terminal truncation, first 264 residues removed (yeast) (UniProt Q05471)
[12] = target: Swr1 actin binding site deletion mutant ΔA1 (missing residues 370–409) (yeast) (UniProt Q05471)
[13] = target: Swr1 actin binding site deletion mutant ΔA2 (missing residues 410–459) (yeast) (UniProt Q05471)
[14] = target: Swr1 residues (1–681)-(GGGS)2-(1360–1514) (ΔATPase) (yeast) (UniProt Q05471)
[15] = target: Swr1 residues 1–681 (NTD) (yeast) (UniProt Q05471)

The chains behind the UniProt entries cited, without tags or fusion partners. Where a name states a change or a piece, a line headed by the entry shows the natural chain unless it says otherwise. A line that says so, or that is headed by a name, gives the form on record, which may keep a tag or linker. Residues count along the entry.
UniProt Q05471: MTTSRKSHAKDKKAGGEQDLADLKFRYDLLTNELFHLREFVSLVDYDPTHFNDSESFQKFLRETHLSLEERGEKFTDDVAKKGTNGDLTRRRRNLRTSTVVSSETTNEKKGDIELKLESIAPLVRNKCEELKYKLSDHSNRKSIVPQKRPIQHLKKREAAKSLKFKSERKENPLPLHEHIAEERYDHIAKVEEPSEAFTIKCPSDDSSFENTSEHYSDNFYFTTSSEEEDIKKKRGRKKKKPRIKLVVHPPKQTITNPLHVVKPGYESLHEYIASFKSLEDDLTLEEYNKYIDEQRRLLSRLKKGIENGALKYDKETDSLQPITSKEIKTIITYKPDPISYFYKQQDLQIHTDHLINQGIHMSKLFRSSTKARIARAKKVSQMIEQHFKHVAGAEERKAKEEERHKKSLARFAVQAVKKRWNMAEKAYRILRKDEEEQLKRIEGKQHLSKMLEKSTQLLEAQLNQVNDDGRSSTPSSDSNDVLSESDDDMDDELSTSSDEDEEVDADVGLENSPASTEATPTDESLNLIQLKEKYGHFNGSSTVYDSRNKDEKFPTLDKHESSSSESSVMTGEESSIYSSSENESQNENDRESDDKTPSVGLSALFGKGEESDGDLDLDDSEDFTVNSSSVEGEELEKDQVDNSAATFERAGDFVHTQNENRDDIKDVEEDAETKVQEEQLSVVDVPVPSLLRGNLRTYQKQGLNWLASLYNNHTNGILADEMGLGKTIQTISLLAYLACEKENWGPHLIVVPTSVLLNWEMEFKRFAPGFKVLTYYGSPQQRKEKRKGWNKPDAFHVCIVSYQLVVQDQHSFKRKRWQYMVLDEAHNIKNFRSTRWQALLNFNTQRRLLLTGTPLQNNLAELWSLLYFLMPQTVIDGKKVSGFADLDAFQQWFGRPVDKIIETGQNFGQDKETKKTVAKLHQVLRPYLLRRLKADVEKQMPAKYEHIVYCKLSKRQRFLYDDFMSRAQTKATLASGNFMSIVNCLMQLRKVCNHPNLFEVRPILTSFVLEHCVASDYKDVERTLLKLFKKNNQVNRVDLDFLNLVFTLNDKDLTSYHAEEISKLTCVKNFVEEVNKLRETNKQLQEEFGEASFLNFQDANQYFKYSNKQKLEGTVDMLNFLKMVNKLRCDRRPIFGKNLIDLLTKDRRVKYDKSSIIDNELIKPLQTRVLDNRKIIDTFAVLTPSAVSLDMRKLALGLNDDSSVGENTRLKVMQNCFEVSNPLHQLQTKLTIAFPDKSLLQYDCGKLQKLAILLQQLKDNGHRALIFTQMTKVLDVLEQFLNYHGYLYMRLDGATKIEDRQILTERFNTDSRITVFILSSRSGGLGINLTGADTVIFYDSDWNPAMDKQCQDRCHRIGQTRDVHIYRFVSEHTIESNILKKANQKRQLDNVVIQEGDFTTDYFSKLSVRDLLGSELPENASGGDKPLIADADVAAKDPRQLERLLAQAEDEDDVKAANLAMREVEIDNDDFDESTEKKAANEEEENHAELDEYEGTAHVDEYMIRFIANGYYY
Swr1 C-terminal truncation, truncated at residue 1497: residues 1-1497 of Q05471
Swr1 C-terminal truncation at residue 1460: residues 1-1460 of Q05471
Swr1 C-terminal truncation at residue 1410: residues 1-1410 of Q05471
Swr1 C-terminal truncation to 1359: residues 1-1359 of Q05471
Swr1 residues 1–681 (NTD): residues 1-681 of Q05471
Swr1 N-terminal truncation, first 210 residues removed: residues 211-1514 of Q05471
Swr1 N-terminal truncation, first 264 residues removed: residues 265-1514 of Q05471
Swr1 N-terminal truncation to residue 299: residues 300-1514 of Q05471
Swr1 N-terminal truncation, 339 residues deleted: residues 340-1514 of Q05471
Swr1 N-terminal truncation to residue 369: residues 370-1514 of Q05471
Swr1 N-terminal truncation to residue 409: residues 410-1514 of Q05471
Swr1 actin binding site deletion mutant ΔA1 (missing residues 370–409) (Q05471, form named): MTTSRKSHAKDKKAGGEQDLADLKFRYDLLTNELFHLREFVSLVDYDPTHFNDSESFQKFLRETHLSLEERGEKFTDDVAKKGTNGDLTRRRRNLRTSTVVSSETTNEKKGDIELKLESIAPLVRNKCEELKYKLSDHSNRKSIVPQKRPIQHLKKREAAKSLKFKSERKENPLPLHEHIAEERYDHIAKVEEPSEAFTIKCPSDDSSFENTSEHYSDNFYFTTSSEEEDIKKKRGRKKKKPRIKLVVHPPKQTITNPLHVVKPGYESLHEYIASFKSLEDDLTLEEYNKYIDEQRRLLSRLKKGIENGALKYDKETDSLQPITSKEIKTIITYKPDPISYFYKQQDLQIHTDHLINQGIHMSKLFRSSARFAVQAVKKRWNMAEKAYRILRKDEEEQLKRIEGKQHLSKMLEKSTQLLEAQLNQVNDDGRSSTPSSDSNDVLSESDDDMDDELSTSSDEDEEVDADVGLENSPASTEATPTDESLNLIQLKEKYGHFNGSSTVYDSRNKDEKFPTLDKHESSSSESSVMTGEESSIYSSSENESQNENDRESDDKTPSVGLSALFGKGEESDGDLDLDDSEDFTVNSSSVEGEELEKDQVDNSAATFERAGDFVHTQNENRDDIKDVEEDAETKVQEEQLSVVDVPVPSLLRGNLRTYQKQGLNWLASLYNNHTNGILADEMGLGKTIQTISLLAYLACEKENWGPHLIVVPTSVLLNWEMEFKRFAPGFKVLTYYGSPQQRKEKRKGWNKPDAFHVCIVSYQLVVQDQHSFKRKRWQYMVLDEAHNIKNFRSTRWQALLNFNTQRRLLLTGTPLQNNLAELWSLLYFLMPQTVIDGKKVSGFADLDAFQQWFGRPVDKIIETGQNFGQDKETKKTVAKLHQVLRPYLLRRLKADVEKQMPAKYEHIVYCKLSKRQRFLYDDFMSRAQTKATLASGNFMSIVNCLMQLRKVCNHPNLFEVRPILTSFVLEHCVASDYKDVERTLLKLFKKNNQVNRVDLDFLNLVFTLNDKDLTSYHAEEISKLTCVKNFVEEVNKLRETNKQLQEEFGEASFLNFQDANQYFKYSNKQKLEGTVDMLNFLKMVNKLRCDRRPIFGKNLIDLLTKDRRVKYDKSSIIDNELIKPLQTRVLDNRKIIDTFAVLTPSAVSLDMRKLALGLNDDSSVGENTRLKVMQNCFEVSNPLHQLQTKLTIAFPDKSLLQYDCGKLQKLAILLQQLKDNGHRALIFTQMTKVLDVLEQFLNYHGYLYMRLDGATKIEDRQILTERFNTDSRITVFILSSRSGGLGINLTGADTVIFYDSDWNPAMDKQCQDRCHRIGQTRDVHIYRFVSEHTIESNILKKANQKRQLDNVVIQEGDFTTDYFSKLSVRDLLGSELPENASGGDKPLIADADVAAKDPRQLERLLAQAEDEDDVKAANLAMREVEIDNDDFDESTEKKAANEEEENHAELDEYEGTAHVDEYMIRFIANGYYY
Swr1 actin binding site deletion mutant ΔA2 (missing residues 410–459) (Q05471, form named): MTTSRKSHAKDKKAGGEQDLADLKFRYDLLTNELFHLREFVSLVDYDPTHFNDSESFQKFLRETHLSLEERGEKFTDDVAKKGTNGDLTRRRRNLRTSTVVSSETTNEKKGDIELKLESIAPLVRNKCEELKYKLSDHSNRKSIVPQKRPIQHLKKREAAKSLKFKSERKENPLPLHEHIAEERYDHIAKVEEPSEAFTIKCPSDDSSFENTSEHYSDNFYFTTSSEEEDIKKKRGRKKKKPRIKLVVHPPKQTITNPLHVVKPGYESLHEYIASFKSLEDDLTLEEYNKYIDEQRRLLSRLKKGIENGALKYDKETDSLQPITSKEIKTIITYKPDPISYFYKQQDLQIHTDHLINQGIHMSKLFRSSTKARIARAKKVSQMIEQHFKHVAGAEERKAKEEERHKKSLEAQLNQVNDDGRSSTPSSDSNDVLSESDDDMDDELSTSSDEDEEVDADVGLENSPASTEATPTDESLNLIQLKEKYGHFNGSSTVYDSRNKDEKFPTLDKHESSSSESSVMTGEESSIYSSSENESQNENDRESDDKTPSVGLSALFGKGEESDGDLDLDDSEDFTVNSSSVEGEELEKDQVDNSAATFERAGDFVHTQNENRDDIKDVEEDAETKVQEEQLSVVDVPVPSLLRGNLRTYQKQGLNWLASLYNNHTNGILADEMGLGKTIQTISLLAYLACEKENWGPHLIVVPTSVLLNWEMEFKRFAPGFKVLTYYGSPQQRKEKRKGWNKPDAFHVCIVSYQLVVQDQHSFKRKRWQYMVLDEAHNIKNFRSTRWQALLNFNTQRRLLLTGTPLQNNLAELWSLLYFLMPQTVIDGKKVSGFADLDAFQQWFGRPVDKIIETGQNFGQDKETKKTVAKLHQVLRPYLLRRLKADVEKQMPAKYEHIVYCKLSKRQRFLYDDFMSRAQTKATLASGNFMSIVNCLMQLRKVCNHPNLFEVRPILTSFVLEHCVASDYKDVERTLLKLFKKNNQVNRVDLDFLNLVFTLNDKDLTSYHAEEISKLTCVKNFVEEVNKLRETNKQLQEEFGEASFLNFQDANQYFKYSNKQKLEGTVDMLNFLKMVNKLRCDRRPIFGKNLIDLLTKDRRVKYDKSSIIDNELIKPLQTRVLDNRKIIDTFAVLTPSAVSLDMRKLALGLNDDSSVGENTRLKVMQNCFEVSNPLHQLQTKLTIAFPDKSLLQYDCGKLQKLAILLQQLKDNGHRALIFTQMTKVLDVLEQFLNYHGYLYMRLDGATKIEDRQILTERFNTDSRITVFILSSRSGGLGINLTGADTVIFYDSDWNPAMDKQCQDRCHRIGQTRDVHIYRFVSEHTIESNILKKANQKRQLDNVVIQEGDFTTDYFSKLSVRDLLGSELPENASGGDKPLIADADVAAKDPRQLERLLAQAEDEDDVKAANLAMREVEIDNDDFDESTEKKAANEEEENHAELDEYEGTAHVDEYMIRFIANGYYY
Swr1 residues (1–681)-(GGGS)2-(1360–1514) (ΔATPase) (Q05471, form named): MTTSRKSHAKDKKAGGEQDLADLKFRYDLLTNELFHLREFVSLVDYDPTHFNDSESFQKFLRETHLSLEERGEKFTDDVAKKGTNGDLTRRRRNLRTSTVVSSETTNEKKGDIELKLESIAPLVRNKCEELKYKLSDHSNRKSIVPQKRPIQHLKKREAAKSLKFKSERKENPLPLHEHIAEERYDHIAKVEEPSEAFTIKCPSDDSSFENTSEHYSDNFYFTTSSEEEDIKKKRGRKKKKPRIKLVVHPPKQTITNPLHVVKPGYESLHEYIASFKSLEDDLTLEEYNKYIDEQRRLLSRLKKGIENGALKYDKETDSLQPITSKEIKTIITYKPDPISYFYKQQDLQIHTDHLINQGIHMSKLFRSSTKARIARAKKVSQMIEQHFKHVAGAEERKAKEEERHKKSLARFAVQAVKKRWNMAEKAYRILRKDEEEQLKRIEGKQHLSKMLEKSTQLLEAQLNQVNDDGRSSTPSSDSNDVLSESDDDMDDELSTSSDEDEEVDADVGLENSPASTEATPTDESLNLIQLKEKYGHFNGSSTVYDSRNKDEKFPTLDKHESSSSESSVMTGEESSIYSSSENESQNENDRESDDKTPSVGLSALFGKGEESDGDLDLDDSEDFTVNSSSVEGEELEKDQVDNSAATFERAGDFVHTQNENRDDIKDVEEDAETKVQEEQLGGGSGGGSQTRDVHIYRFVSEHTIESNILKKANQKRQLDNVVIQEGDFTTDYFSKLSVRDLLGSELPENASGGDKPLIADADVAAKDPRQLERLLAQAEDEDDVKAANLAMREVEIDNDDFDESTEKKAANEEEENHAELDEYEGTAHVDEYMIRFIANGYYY

binding [1]: binds
binding [2]: binds
binding [3]: binds
binding [4]: binds
binding [5]: binds
binding [6]: binds
binding [7]: binds
binding [8]: binds
binding [9]: binds
binding [10]: binds
binding [11]: binds
binding [12]: binds
binding [13]: binds
binding [14]: binds
binding [15]: binds
Substance: actin (from UniProt P60010 1-375)
